Record: PubChem BioAssay AID1224830 (NIAID, 2016)
This is an unselected part of about 18,000 reagents tested. Of all reagents, about 2,900 (16%) were called active. 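Calls are made per well; low scores hint the gene aids the LPS response, high scores that it dampens it.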 Repeated entries: four replicate wells of each siRNA pool. No sequences are given here.

Aim: 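Host factors that control LPS-induced TNF expression in human macrophages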 (primary screen)
System: human THP-1 monocytic leukaemia cells, TNF dual-luciferase reporter clone, PMA-differentiated to macrophage-like cells
Reagent: siRNA pool against human genes, 50 nM
Timing: LPS for 4 h, given about 3 days after siRNA transfection
Treatment: bacterial LPS (TLR4 ligand), 10 ng/ml
Measurement: 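Ratio of firefly to renilla light, scaled to the plate median and expressed as a robust z-score per replicate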
Reading the numbers: TNF reporter robust z-score: higher = stronger TNF reporter response to LPS
Rule for the call: 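a well is active when its z-score exceeds 2.8 or falls below -1.5; control wells carry no call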

The first 14 records as a preview:
gene knocked down	TNF reporter robust z-score	outcome
APOBEC3A	-0.05	inactive
APOBEC3A	1.03	inactive
APOBEC3A	0.28	inactive
APOBEC3A	1.73	inactive
UBE2S	-0.3	inactive
UBE2S	0.64	inactive
UBE2S	0.74	inactive
UBE2S	0.09	inactive
NOC2L	-0.62	inactive
NOC2L	0.77	inactive
NOC2L	0.55	inactive
NOC2L	-0.24	inactive
GNPTAB	1.19	inactive
GNPTAB	1.33	inactive

Results, from the first entry:
gene knocked down	TNF reporter robust z-score	outcome
APOBEC3A	-0.05	inactive
APOBEC3A	1.03	inactive
APOBEC3A	0.28	inactive
APOBEC3A	1.73	inactive
UBE2S	-0.3	inactive
UBE2S	0.64	inactive
UBE2S	0.74	inactive
UBE2S	0.09	inactive
NOC2L	-0.62	inactive
NOC2L	0.77	inactive
NOC2L	0.55	inactive
NOC2L	-0.24	inactive
GNPTAB	1.19	inactive
GNPTAB	1.33	inactive
GNPTAB	1.6	inactive
GNPTAB	1.79	inactive
THBS1	2.05	inactive
THBS1	2.28	inactive
THBS1	1.98	inactive
THBS1	1.74	inactive
CCN5	-0.9	inactive
CCN5	-0.51	inactive
CCN5	-0.69	inactive
CCN5	-0.53	inactive
NIBAN3	1.41	inactive
NIBAN3	2.04	inactive
NIBAN3	0.67	inactive
NIBAN3	1.75	inactive
IL4I1	-1.48	inactive
IL4I1	-1.96	active
IL4I1	-1.75	active
IL4I1	-1.3	inactive
MTX2	-1.41	inactive
MTX2	-0.54	inactive
MTX2	-0.6	inactive
MTX2	0.6	inactive
ORM2	4.81	active
ORM2	3.67	active
ORM2	1.08	inactive
ORM2	2.02	inactive
DENND2B	-1.59	active
DENND2B	0.87	inactive
DENND2B	1.11	inactive
DENND2B	0.53	inactive
ADD3	1.39	inactive
ADD3	0.75	inactive
ADD3	-0.72	inactive
ADD3	0.78	inactive
CT83	-0.79	inactive
CT83	-1.07	inactive
CT83	-1.14	inactive
CT83	-1.26	inactive
AZU1	-1.73	active
AZU1	-1.55	active
AZU1	-1.33	inactive
AZU1	-0.29	inactive
ATG13	-1.51	active
ATG13	-0.42	inactive
ATG13	-0.7	inactive
ATG13	-1.22	inactive
RLBP1	-0.23	inactive
RLBP1	0.6	inactive
RLBP1	-0.52	inactive
RLBP1	0.17	inactive
SLC39A4	1.07	inactive
SLC39A4	1.09	inactive
SLC39A4	0.26	inactive
SLC39A4	0.61	inactive
CDH8	0.28	inactive
CDH8	0.31	inactive
CDH8	-0.09	inactive
CDH8	0.18	inactive
RAB5A	-1.01	inactive
RAB5A	-0.5	inactive
RAB5A	-0.96	inactive
RAB5A	-0.46	inactive
DDX1	-0.67	inactive
DDX1	-0.09	inactive
DDX1	-0.05	inactive
DDX1	-0.51	inactive
VCX3B	-1.23	inactive
VCX3B	-0.81	inactive
VCX3B	-0.54	inactive
VCX3B	-1.15	inactive
SIRAL1	-1.2	inactive
SIRAL1	0.77	inactive
SIRAL1	-1.25	inactive
SIRAL1	0.43	inactive
PAFAH1B2	-0.09	inactive
PAFAH1B2	-0.48	inactive
PAFAH1B2	-0.6	inactive
PAFAH1B2	0.17	inactive
CCR7	0.33	inactive
CCR7	0.5	inactive
CCR7	0.83	inactive
CCR7	0.92	inactive
FOLH1	1.17	inactive
FOLH1	-0.72	inactive
FOLH1	0.64	inactive
FOLH1	-0.2	inactive
CLEC12B	3.35	active
CLEC12B	3.83	active
CLEC12B	5.45	active
CLEC12B	3	active
CTAG1B	0.19	inactive
CTAG1B	1.36	inactive
CTAG1B	1.27	inactive
CTAG1B	-0.8	inactive
JMJD7-PLA2G4B	-1.29	inactive
JMJD7-PLA2G4B	-0.85	inactive
JMJD7-PLA2G4B	-1.47	inactive
JMJD7-PLA2G4B	-0.45	inactive
